# Assay results as given in patent US20070036810A1, “Cyclic amp response element activator proteins and uses related thereto” (priority 2003, published 2007).
# Amino acid sequences for entries named in this document (tags omitted).
# UniProt P16220: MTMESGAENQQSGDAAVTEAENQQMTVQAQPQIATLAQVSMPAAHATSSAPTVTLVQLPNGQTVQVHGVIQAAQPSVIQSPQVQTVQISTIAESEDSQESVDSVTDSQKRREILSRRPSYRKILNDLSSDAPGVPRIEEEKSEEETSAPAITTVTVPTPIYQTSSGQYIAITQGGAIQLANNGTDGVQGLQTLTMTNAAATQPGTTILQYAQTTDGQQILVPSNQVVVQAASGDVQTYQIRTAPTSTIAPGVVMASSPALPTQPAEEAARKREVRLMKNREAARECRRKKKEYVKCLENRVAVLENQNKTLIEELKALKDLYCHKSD
# No constants are given. Whether binding was seen depends on the method and setting. In cells and extracts the contact can be indirect. Some results given as binding are weak or reduced against the parent protein; the word gives no strength. Where a sequence is shown, tags or fusion partners need not be part of it.
# B1: K1 variant of CREAP1 (FLAG-tagged CREAP1 fragment, amino acids 1-170) (protein, not shown: small tags and cut ends)
# chain: MATSNNPRKFSEKIALHNQKQAEETAAFEEVMKDLSLTRAARLQLQKSQYLQLGPSRGQYYGGSLPNVNQIGSGTMDLPFQPSGFLGEALAAAPVSLTPFQSSGLDTSRTTRHHGLVDRVYRERGRLGSPHRRPLSVDKHGRQADSCPYGTMYLSPPADTSWRRTNSDSA
# Biological target: endogenous CREB1 (cAMP Responsive Element Binding Protein 1) of HEK293 cells (UniProt P16220)
# Assay: co-immunoprecipitation from transfected HEK293 cells (M2-agarose anti-FLAG beads), Western blot with anti-CREB antibody
binder,measurement,value
B1,binding,binds
